Results as given in PubChem BioAssay AID540303 (National Center for Advancing Translational Sciences (NCATS), 2011).
In all, about 330,000 compounds went through this assay and about 1,000 (0.3%) were called active. The shares of active, inactive and inconclusive entries below differ from those in the screen. The call rests on the fitted dose curve; in most records, active means well fitted inhibition curve with a large enough effect; inconclusive means small, poorly fitted or top-dose-only effect; inactive means no such curve, though single readings can be large or run the other way; tested in mouse RAW 264.7 cells. A potency beside an inconclusive call is a rough fit, not a confirmed value.
On the % scale 0 is the no-effect control and ±100 the full control effect; potency means the concentration at half of the fitted maximal effect.

Experiment: qHTS for Inhibitors of Cell Surface uPA Generation; further: nearly all actives have a fitted effect of over 55% in size
Conditions: cell surface uPA generation assay; series mostly up to 38.3 µM; activity change, negative = inhibition: at the top concentration
How it was run: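 Validation set in qHTS format. RAW 264.7 cells were pre-plated overnight and then exposed to compounds (up to 38.3 uM final) for 24 h at 37 C in 5% CO2, followed by a luminescent ATP-Lite measurement.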
With `COc1ccc(N/N=C(\C#N)C(=N)SCc2ccccc2)cc1` the Potency was inconclusive: 6.31 µM [inhibitor, partial curve, poor fit].
For `O=C(Cc1ccc([N+](=O)[O-])cc1)Nc1ccon1`, the “activity change, negative = inhibition” value was inactive: 0.545%.
For `O=C(Cn1c(-c2ccccn2)nc2ccccc21)N/N=C/c1ccccn1`, the Potency was inconclusive: 8.91 µM [inhibitor, partial curve, poor fit].
For `O=C(N/N=C/c1ccc([N+](=O)[O-])o1)c1ccc(O)cc1`, the Potency was active: 7.08 µM.
With `COc1ccc(C(=O)Cn2c(C(C)=O)nc3ccccc32)cc1` the “activity change, negative = inhibition” value was inactive: -8.61%.
For `C/C(=N/Nc1ccc([N+](=O)[O-])cc1)c1c[nH]c2ccccc12`, the Potency was inconclusive: 14.1 µM [inhibitor, single point].
For `Nc1ccc2c(c1)Cc1c(F)cccc1-2`, the “activity change, negative = inhibition” value was inactive: 0.743%.
For `Cc1c(Cl)cccc1NC(=O)COC(=O)c1ccc(CN2CCCC2=O)cc1`, the Potency was inconclusive: 0.316 µM [inhibitor, full curve, poor fit].
In the case of `COC(=O)CSC1=C(C#N)C(c2ccccc2)CC(=O)N1` (stereo not given), the Potency is reported as inconclusive: 8.91 µM [inhibitor, single point].
With `COc1ccc(CN(C)CC2CCCN(CCc3ccc(F)cc3)C2)cc1OC` (stereo not given) the Potency was inconclusive: 3.55 µM [inhibitor, full curve, poor fit].
In the case of `Cn1nc(C(=O)Nc2nc3ccccc3[nH]2)ccc1=O`, the “activity change, negative = inhibition” value is reported as inactive: -6.54%.
With `COc1cccc(OCCSc2nc(N)cc(N)n2)c1` the “activity change, negative = inhibition” value was inactive: -7.44%.
In the case of `O=C(O)CCC(=NNC(=O)c1cccc(S(=O)(=O)N2CCCCC2)c1)c1ccccc1`, the Potency is reported as inconclusive: 11.2 µM [inhibitor, partial curve, poor fit].
In the case of `CCOc1ccc(CSC(=N)N)cc1`, the “activity change, negative = inhibition” value is reported as inactive: -9.07%.
For `COc1ccc(-c2cc3ccc(F)cc3cn2)cc1`, the Potency was inconclusive: 11.2 µM [inhibitor, single point].
With `O=C(Nc1ccc(S(=O)(=O)N2CCOCC2)cc1)C1CCN(S(=O)(=O)c2ccc(Cl)cc2)CC1` the Potency was inconclusive: 7.08 µM [inhibitor, partial curve].
With `O=C(NNC(=O)c1cccnc1SCc1cccc([N+](=O)[O-])c1)c1ccc(F)cc1` the Potency was inconclusive: 28.2 µM [inhibitor, single point].
For `Cc1nc(SCC(=O)c2cccc([N+](=O)[O-])c2)n[nH]1`, the “activity change, negative = inhibition” value was inactive: -5.57%.
In the case of `O=C(CCCc1ccccn1)c1ccccc1`, the Potency is reported as inconclusive: 11.2 µM [inhibitor, single point].
In the case of `COCOc1ccc(C=O)c(OCOC)c1`, the Potency is reported as inconclusive: 15.8 µM [inhibitor, single point].
For `Cc1ccc(CNC(=O)C2CC(c3cc(C(F)(F)F)cc(C(F)(F)F)c3)=NO2)o1` (stereo not given), the Potency was inconclusive: 11.2 µM [inhibitor, single point].
With `CN(C)CCCOc1nn(Cc2ccccc2)c2ccccc12` the Potency was inconclusive: 6.31 µM [inhibitor, partial curve, poor fit].
For `O=C(Nc1nc2ccccc2[nH]1)c1ccc(Cl)c(S(=O)(=O)N2CCCC2)c1`, the “activity change, negative = inhibition” value was inactive: -11.7%.
With `O=C(OCC(=O)N1CCC(c2ccccc2)=N1)c1ccc([N+](=O)[O-])s1` the Potency was inconclusive: 0.398 µM [inhibitor, full curve, poor fit].
In the case of `CN(CC(=O)Nc1cccc(F)c1)C(=O)c1cccc(S(=O)(=O)N2CCN(c3ccc(F)cc3)CC2)c1`, the Potency is reported as inconclusive: 28.2 µM [inhibitor, single point].
With `O=C(CC(c1ccccc1)c1ccccc1)Nc1ccc(C(=O)O)cc1` the “activity change, negative = inhibition” value was inactive: 4.39%.
In the case of `COc1ccccc1N1CCN(S(=O)(=O)c2cnc[nH]2)CC1`, the Potency is reported as inconclusive: 1 µM [inhibitor, single point].
With `CCOc1cc(CNc2ccccc2)cc(Br)c1OCC(=O)NC(C)(C)C` the Potency was inconclusive: 12.6 µM [inhibitor, single point].
In the case of `Cc1ccccc1CSc1ccc(-c2ccc3c(c2)OCO3)nn1`, the “activity change, negative = inhibition” value is reported as inactive: -0.347%.
With `Nc1ccc2nn(-c3ccc(F)cc3)nc2c1` the Potency was inconclusive: 8.91 µM [inhibitor, partial curve].
In the case of `N#Cc1sc(=O)[nH]c1Cl`, the “activity change, negative = inhibition” value is reported as inactive: -2.39%.
For `CCN(Cc1ccccc1)C(=O)C1CCN(Cc2ccc(SC)cc2)CC1`, the “activity change, negative = inhibition” value was inactive: -5.93%.
For `CN1CCCC(CN2c3ccccc3Sc3ccccc32)C1` (stereo not given), the Potency was inconclusive: 8.91 µM [inhibitor, single point].
In the case of `COc1ccc2c(c1)C(=O)CC(c1ccc(OC)c(OC)c1)O2` (stereo not given), the Potency is reported as inconclusive: 12.6 µM [inhibitor, single point].
For `COc1ccc(OC)c(C2=NOC(C(=O)NCc3ccco3)C2)c1` (stereo not given), the “activity change, negative = inhibition” value was inactive: -11.2%.
In the case of `CCOC(=O)c1sc2nc(CSc3ccccc3)nc(N3CCCN(C)CC3)c2c1C`, the Potency is reported as inconclusive: 8.91 µM [inhibitor, single point].
With `Cc1ccc(NC(=O)CN2C(=O)NC3(CCCCCC3)C2=O)cc1Cl` the Potency was inconclusive: 11.2 µM [inhibitor, single point].
In the case of `Oc1c(CN2CCc3ccccc3C2)cc(Cl)c2cccnc12`, the Potency is reported as inconclusive: 8.91 µM [inhibitor, partial curve, poor fit].
With `O=C(N/N=C\c1ccc([N+](=O)[O-])s1)c1cncc(Br)c1` the Potency was inconclusive: 2.51 µM [inhibitor, full curve, poor fit].
With `COc1cc(OC)cc(C(=O)c2c(C)c(C#N)c3ccccn23)c1` the Potency was inconclusive: 0.891 µM [inhibitor, full curve, poor fit].
In the case of `Cc1c(C(=O)Nc2ccc3c4c(cccc24)CC3)cccc1[N+](=O)[O-]`, the Potency is reported as inconclusive: 10 µM [inhibitor, single point].
For `Cc1nc2c(-c3ccc(F)cc3)c(C)nn2c(C)c1CCC(=O)NCc1ccco1`, the Potency was inconclusive: 28.2 µM [inhibitor, single point].
With `Cc1cc(=O)[nH]c(N/N=C/c2cc(C)n(CC(F)(F)F)c2C)n1` the Potency was active: 0.251 µM.
For `COc1ccc(C(=O)NC2CCCc3c2cnn3-c2cccc(C)c2C)c(OC)n1` (stereo not given), the Potency was inconclusive: 12.6 µM [inhibitor, single point].
In the case of `O=C(NCCC1CCCCN1S(=O)(=O)c1ccc(Cl)cc1)C(=O)NCCN1CCOCC1` (stereo not given), the Potency is reported as inconclusive: 28.2 µM [inhibitor, single point].
